Measured values reported in PMC8390757.

Amino acid sequences for entries named in this document (tags omitted).
UniProt P60335: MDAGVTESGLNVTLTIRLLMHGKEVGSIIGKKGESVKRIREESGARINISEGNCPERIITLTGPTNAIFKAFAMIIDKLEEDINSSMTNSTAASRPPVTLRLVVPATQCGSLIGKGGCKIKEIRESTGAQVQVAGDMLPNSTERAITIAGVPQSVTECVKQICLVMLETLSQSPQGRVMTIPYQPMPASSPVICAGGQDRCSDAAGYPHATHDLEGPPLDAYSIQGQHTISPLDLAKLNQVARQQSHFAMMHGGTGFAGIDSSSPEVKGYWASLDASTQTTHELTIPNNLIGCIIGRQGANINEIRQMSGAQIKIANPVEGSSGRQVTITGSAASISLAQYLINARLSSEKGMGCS
UniProt Q61990: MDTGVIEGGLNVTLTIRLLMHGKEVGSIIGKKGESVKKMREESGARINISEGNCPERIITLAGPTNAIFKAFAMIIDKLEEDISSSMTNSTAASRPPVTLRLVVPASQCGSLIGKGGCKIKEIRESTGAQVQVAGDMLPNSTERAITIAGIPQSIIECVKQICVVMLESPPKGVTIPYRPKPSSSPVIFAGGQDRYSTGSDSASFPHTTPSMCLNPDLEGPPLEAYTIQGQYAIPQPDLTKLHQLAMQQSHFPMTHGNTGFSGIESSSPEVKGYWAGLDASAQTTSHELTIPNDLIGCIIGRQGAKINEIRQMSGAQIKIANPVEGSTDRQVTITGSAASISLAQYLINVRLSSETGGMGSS

Biological target: FLAG-tagged PTENα (bait of the FLAG pull-down with mass spectrometry) (UniProt P60484)
Test: affinity purification with mass spectrometry; FLAG-tagged PTENα expressed in cells treated with 100 μM H2O2; whole-cell extracts on FLAG-beads, washed four times with PBS with 0.1% NP40, eluted with 3× FLAG-peptide, SDS-PAGE, in-gel trypsin digestion, LTQ Orbitrap Elite

Substance | binding
PCBP1 (from UniProt P60335 1-356) | binds
PCBP2 (from UniProt Q61990 1-362) | binds

These are yes or no findings as the source states them, for the method shown. Binding seen in cells or lysates may run through a third protein. These calls come from enrichment with a bait or labelling near it, and not all partners need be listed.
